Data on five molecules can be found in patent publication US20220389097A1 (Genentech, published 2022).

Numbering of substitutions follows the chain as printed. Results are given in words; binding and its absence hold for the method and conditions named. Some entries that bind do so weakly or less than the wild type. Where no end group is shown, it is not given here.

Assay [1] deals with T1, hTREM2 stalk peptide residues 129-175 (human, biotinylated).
T1 construct: also called human TREM2 stalk peptide
T1 peptide: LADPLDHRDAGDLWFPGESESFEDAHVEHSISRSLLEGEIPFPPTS
Put plainly: peptide ELISA, IgG. On the technique in general: In an ELISA, binding on a coated surface is turned into a signal by an enzyme label.

For assay [2], the target named is T2, TREM2 peptide fragment residues 149-158 (human).
T2 sequence (peptide): SFEDAHVEHS
Put plainly: peptide ELISA, IgG.

B1: Para.09 IgG with the 3.18E5 light chain (antibody, V domains shown)
VH: EVQLVETGGSLVQPGKSLRLTCATSGFPFSNVWLHWVRQSPEKHPEWVAHIKAKSDNYATYYAESVKGRFTISRDDSKSSVFLQMNSLKEEDTAIYYCTDILEYWGQGTLVTVSS
VL: DTVLTQAPLSVSVTPGESASISCRSNKSLLGIRDITSLYWYLQKPGKSPQLLIYRMSNLASGVPDRFSGSGSETDFTLKISEVETEDVGVYYCAQFLRYPYTFGPGTKLELK
Take B1: the binding result in assay [1] and in assay [2] was “binds” each time.

B2: Para.09 IgG with the 3.27H7 light chain (antibody, V domains shown)
VH: B1 VH
VL: DVVLTQAPLSVSVTPGESASISCRSSRSLLTSKGITSLYWYLQKPGMSPHLLIYRMSNLASGIPDRFSGSGSETDFTLKISEVEPEDVGVYYCAQFLVYPYTFGAGTKLELK
notes: also called rat Para.09; Para.09-L27H7
Turning to B2, the binding result in assay [1] and in assay [2] was “binds” each time.

B3: 3.10C2 IgG (rat variable regions; captured by anti-CH1 or anti-human Fab chips) (antibody, V domains shown)
VH: EVQLVETGGSLVQPGKSLKLTCATSGFPFSNVWMHWVRQSPEKQLEWIAHIKAKSDNYATYYAESVKGRFTISRDDSKTSIYLQMNSLKEDDTAIYYCTGLDYWGQGVMVTVSS
VL: B1 VL with V11L, N26S, I32V
notes: also called parental 3.10C2 clone; 3.10C2 control
In the case of B3, in assay [2], the binding entry is “binds”.

B4: Para.09 IgG with the 3.50G1 light chain (antibody, V domains shown)
VH: B1 VH
VL: B1 VL with Y41F, K112Q
As to B4, the binding entry in assay [1] and in assay [2] was “binds” in each case.

B5: Para.09 IgG with the 3.10C2 light chain (antibody, V domains shown)
VH: B1 VH
VL: B1 VL with V11L, N26S, I32V
Take B5: the binding result in assay [1] and in assay [2] was “binds” each time.
